This note sets out measurements from PubChem BioAssay AID2685 (National Center for Advancing Translational Sciences (NCATS), 2010).

A short description of this experiment: qHTS Assay for Lipid Storage Modulators in Drosophila S3 Cells.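 As to cell number change: cells counted by Cell Tracker Red CMTPX staining in the red channel.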 To be noted: BODIPY lipid droplet fluorescence, 18-24 h; for cell number change: measured here: cell count max response, cells fed with added oleic acid. The gist of the method:
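Drosophila S3 cells got compounds at several concentrations plus oleic acid (400 uM solution). Laser-scanning cytometry with 488 nm excitation read lipid droplets at 500-530 nm and cells at 575-640 nm. Percent activity was relative to 20 uM Triacsin C.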

Where [1] appears, read: measured here: cell number channel AC50, cells fed with added oleic acid.
[2] abbreviates: measured here: lipid fluorescence (Fed channel) AC50, cells fed with added oleic acid.

Some of the results follow. Further columns of the screen follow, without active or inactive calls. Most of these compounds were active or inconclusive in the main read-out, so they are no random draw. The note in brackets gives the kind of curve behind each potency; many fits are weak.

In the case of `Cc1nc(C)c(-c2ccc(SCC(=O)Nc3ccc(F)cc3F)nn2)s1`, the cell number change was -0.0255%.

Usually AC50 stands for the concentration giving half of the maximal activity seen. Read a high AC50 as weaker potency. With `O=C(c1ccco1)N1CCN(C(=S)Nc2ccc(F)cc2)CC1`, the cell number change was 20.8%. The AC50 under setting [1] was 0.116 µM [rising, full curve, poor fit]. Further, under setting [2], the AC50 was 6.51 µM [falling, single point].

For the molecule `COCCCNC(=S)N(CCCN(C)C)Cc1cc2cc3c(cc2[nH]c1=O)OCCO3`, the cell number change is -11%. Moreover, the AC50 under setting [2] was 6.51 µM [falling, single point].

Regarding `CCCNC(=O)CN1C(=O)c2ccccc2Sc2ncccc21`, the cell number change was 16.9%. Besides, the AC50 under setting [1] is 4.11 µM [rising, single point].

For the molecule `c1ccc(-c2oc3ncnc(N4CCOCC4)c3c2-c2ccccc2)cc1`, the cell number change amounted to 160%. Also, the AC50 under setting [1] is 3.66 µM [rising, full curve]. Besides, the concentration at half-maximal activity (AC50) under setting [2] was 7.31 µM [rising, partial curve].

With `CC(C)(C)OC(=O)NCc1ccc(NC(=O)c2nc[nH]c2C(=O)N[C@@H](Cc2ccccc2)C(=O)OC(C)(C)C)cc1`, the cell number change was -28.8%.

In the case of `CCOC(=O)N1CCN(C(=O)c2cc(-c3ccc(F)cc3)[nH]c2C)CC1`, the AC50 under setting [2] is 0.517 µM [falling, full curve, poor fit].

Turning to `Cc1ccc2nsnc2c1NC(=O)c1sc2ccccc2c1Cl`, the cell number change was 3.81%. Moreover, under setting [2], the AC50 is 2.06 µM [rising, single point].

Take `O=C(c1nc2nc(-c3ccc(Cl)cc3)cc(C(F)(F)F)n2n1)N1CCOCC1`: the cell number change is 0.317%. Also, the AC50 under setting [1] is 4.11 µM [rising, single point].

For the molecule `Cc1ccc(C)c(S(=O)(=O)N2CCCOC2CNC(=O)C(=O)NCCc2ccccc2)c1` (configuration not stated), the cell number change came out at 15%. Under setting [2], the AC50 was 6.51 µM [rising, partial curve, poor fit].

`Cc1ccc(/C=C(/NC(=O)c2ccccc2)C(=O)NCCc2c[nH]c3ccccc23)o1`: the cell number change was found to be 85.6%.

As for `COc1ccccc1Nc1c2ccccc2nc2ccccc12`, the cell number change is -94%. In addition, under setting [1], the AC50 was 23.1 µM [falling, partial curve]. Moreover, the AC50 under setting [2] was 20.6 µM [falling, partial curve].

With `Cc1nn(CC(=O)NCCCN2CCCCC2)c(=O)c2cccn12`, the cell number change is 31%. For the same molecule, the AC50 under setting [1] is 7.31 µM [rising, partial curve, poor fit].

For `O=[N+]([O-])c1ccc(-c2nc3ccc([N+](=O)[O-])cc3[nH]2)cc1`, the cell number change is -14.7%. The AC50 under setting [2] was 4.11 µM [falling, single point].

In the case of `O=C(O)C(c1ccccc1)N1C(=O)/C(=C\c2ccc(O)c(O)c2)SC1=S` (configuration not stated), the cell number change was -155%. Besides, under setting [2], the AC50 is 14.6 µM [falling, partial curve].

Regarding `O=C(Nc1nc2cc3c(cc2s1)OCCO3)c1ccc(N2C(=O)CCC2=O)cc1`, the cell number change was -0.241%. Besides, the concentration at half-maximal activity (AC50) under setting [2] was 29.1 µM [rising, single point].

Turning to `CSc1cccc(NC(=O)CCn2c(=O)c3cccn3c3cccnc32)c1`, the cell number change was -15.8%. Further, the AC50 under setting [2] is 29.1 µM [falling, single point].

Turning to `CC12CN(C(=S)Nc3ccccc3)CC(C)(CN(C(=S)Nc3ccccc3)C1)C2=O`, the cell number change is -39.6%. Under setting [1], the AC50 is 25.9 µM [falling, partial curve, poor fit]. Also, the AC50 under setting [2] is 29.1 µM [falling, single point].

As for `CCc1c(C)nc(N)n2c(SCC(=O)Nc3ccccc3)nnc12`, the cell number change is -22.2%.

With `COC(=O)CCC(=O)NNC(=O)CCC(=O)Nc1cccc(Cl)c1C`, the cell number change came out at 17.5%. Besides, under setting [1], the AC50 is 6.51 µM [rising, partial curve, poor fit].

In the case of `CCCCC(=O)NCCc1ccc(OC)cc1`, the cell number change was found to be 33.3%. Under setting [2], the AC50 is 0.731 µM [falling, full curve].

In the case of `O=C(NCc1ccc(Cl)cc1)c1cc(=O)[nH]c2ccc(S(=O)(=O)N3CCOCC3)cc12`, the cell number change was -40.2%. Further, under setting [1], the AC50 was 32.6 µM [falling, single point]. Further, under setting [2], the AC50 is 29.1 µM [falling, single point].

For the molecule `CCOc1cc(/C=N\NC(=O)c2ccc(C)nc2)cc([N+](=O)[O-])c1O`, the cell number change worked out at 4.9%. The AC50 under setting [2] was 0.92 µM [falling, full curve].

On to `CS(=O)(=O)N(CC(O)Cn1c2ccccc2c2ccccc21)c1cccc2ccccc12` (configuration not stated), for which the cell number change is -16%. Further, the AC50 under setting [2] is 6.51 µM [rising, single point].

For the molecule `O=C(O)c1ccc(Cl)c(NCc2cccnc2)c1`, the cell number change amounted to 3.81%. For the same molecule, the AC50 under setting [2] is 1.16 µM [rising, full curve].

`O=C(Nc1ccc(S(=O)(=O)N2C[C@@H]3C[C@@H](C2)c2cccc(=O)n2C3)cc1)c1ccc(F)cc1`: the cell number change stood at 19.5%. The AC50 under setting [2] was 0.092 µM [falling, full curve, poor fit].

Consider `CC(C)(C)C(CCl)C(=O)NN=C(c1ccccc1)c1ccccc1` (configuration not stated), for which the cell number change is 11.2%. Besides, the AC50 under setting [2] is 29.1 µM [rising, single point].

For `CCC(CC)NC(=O)c1cc2c(C)nn(Cc3ccccc3Cl)c2s1`, the cell number change was -28.9%. Moreover, the concentration at half-maximal activity (AC50) under setting [2] was 2.06 µM [rising, partial curve].

`Cc1ccc(C)c(-c2csc(Nc3ncccn3)n2)c1`: the cell number change was -30.4%. Moreover, the AC50 under setting [1] is 1.84 µM [falling, full curve]. The AC50 under setting [2] is 0.206 µM [falling, full curve].

With `CC(=O)c1cccc(NC(=O)c2ccc(NC(=O)CCS(=O)(=O)c3cccs3)cc2)c1`, the cell number change worked out at 54.3%. Under setting [1], the AC50 is 23.1 µM [rising, single point].

With `Cc1ccc(C)c(S(=O)(=O)N2CCN(C(=O)c3ccccn3)CC2)c1`, the cell number change is 16.6%. The AC50 under setting [1] was 2.06 µM [rising, single point]. The AC50 under setting [2] was 1.84 µM [rising, full curve].

Turning to `CCn1c(=S)ccc2ccc(OC)cc21`, the cell number change was -39.4%. In addition, the AC50 under setting [1] was 4.61 µM [falling, partial curve, poor fit]. Also, under setting [2], the AC50 is 6.51 µM [falling, partial curve].

With `CC1CSc2nc3sc4c(c3c(=O)n21)CCCC4` (configuration not stated), the cell number change was found to be 156%. Also, the AC50 under setting [1] is 13 µM [rising, partial curve].

As to `CCN(CC)c1ccc(NC(=O)CN2CCN(CC(=O)Nc3ccc(F)cc3)CC2)cc1`, the cell number change came to 3.04%. Further, under setting [2], the AC50 is 6.51 µM [falling, single point].

For `Cc1ccc2cc(-c3noc(C4CCCO4)n3)c(=O)[nH]c2c1` (configuration not stated), the cell number change came out at 7.8%. For the same molecule, the AC50 under setting [2] is 0.058 µM [rising, full curve, poor fit].

Take `c1ccc(N2CCCCC2)c(NC2=NCCC2)c1`: the cell number change turned out to be 3.79%. In addition, the AC50 under setting [2] is 0.13 µM [rising, full curve, poor fit].

As for `CC(=O)Nc1ccc(C(=O)NNC(=O)c2cccc(C)c2)cc1`, the cell number change is 33.3%.

On to `CN(CCC(=O)Nc1ccc(Cl)cc1)Cc1ccccc1`, for which the cell number change was found to be 6.93%.

Consider `COc1ccc(C(=O)Nc2cccc(N(C)S(C)(=O)=O)c2)cc1OC`, for which the cell number change was 0.729%.

In the case of `c1ccc(-c2nnc(CSc3nc4ccccc4[nH]3)o2)cc1`, the cell number change was found to be 5.06%.

Regarding `Cc1cc(N2CCN(c3ccccc3)CC2)nc2ccccc12`, the cell number change came to 18.6%. Besides, the AC50 under setting [2] is 29.1 µM [falling, single point].

On to `OCc1nc2ccccc2n1CC(O)COc1ccccc1` (configuration not stated), for which the cell number change was -8.51%.

Consider `Cc1cc(NC(=O)Nc2cc(C)nn2-c2ccccc2)n(-c2ccccc2)n1`, for which the cell number change was -43%. Further, the concentration at half-maximal activity (AC50) under setting [1] was 18.4 µM [falling, single point].

For the molecule `CCOC(=O)c1cc(NC(=O)CSCCO)ccc1Cl`, the cell number change was -24.4%. In addition, the AC50 under setting [2] was 0.731 µM [rising, partial curve, poor fit].

As to `COc1ccc(C(=O)Nc2ccc(CN3CCOCC3)cc2)cc1Br`, the cell number change was determined as 11.6%. Under setting [2], the AC50 is 0.58 µM [falling, single point].

With `c1ccc(Nc2nn[nH]n2)cc1`, the cell number change turned out to be 0.37%. The AC50 under setting [2] is 6.51 µM [falling, single point].

Consider `O=[N+]([O-])c1cccnc1SCc1ccccc1`, for which the cell number change worked out at 19.2%. For the same molecule, the AC50 under setting [2] was 8.2 µM [rising, partial curve].

Regarding `CCOc1cc([N+](=O)[O-])cc2c1C(=O)Nc1ccccc1O2`, the cell number change amounted to 4.89%. For the same molecule, the AC50 under setting [2] was 23.1 µM [falling, single point].

For `C=CCN1C(=O)CC(C(=O)NC)SC1=Nc1ccc(C(=O)OCC)cc1` (configuration not stated), the cell number change came out at 82.5%. The AC50 under setting [1] was 2.91 µM [rising, partial curve]. Also, the AC50 under setting [2] is 1.46 µM [rising, partial curve].

Consider `CC(C)c1ccc(NC(=O)COc2nnc(-c3cccs3)c(-c3cccs3)n2)cc1`, for which the cell number change was determined as 72.7%. Also, under setting [1], the AC50 was 8.2 µM [rising, partial curve]. Besides, the AC50 under setting [2] is 3.66 µM [rising, single point].

For `Cc1cccc(C(=O)NCCc2ccccc2)c1`, the cell number change stood at 17.5%. Moreover, the AC50 under setting [2] is 0.092 µM [rising, full curve, poor fit].

As to `CC(=O)Nc1nnc(CCS(=O)(=O)c2ccc(Cl)cc2)s1`, the cell number change is -34.6%. In addition, the AC50 under setting [1] is 20.6 µM [falling, single point].

Regarding `CCCSc1nc2ccsc2c(=O)n1CC`, the cell number change is -33.2%. Under setting [1], the AC50 was 0.164 µM [falling, full curve, poor fit]. In addition, the AC50 under setting [2] is 18.4 µM [falling, single point].

For `CCN(CC)C(=O)c1sc(NC(=O)c2c(OC)cccc2OC)c(C#N)c1C`, the cell number change is 3.34%. Also, under setting [2], the AC50 is 29.1 µM [rising, single point].

Regarding `CC(C)OCCCNC1=C(Cl)C(=O)c2ccccc2C1=O`, the cell number change is -48%. Under setting [1], the concentration at half-maximal activity (AC50) is 29.1 µM [falling, single point]. Further, the AC50 under setting [2] was 18.4 µM [falling, single point].

Consider `Cc1nc(SCC(=O)NCc2ccco2)c2c(=O)n(C)c(=O)n(CC(C)C)c2n1`, for which the cell number change was 10.5%.

Turning to `CC(=O)C1=C(c2ccccc2)NC(=O)NC1c1cccs1` (configuration not stated), the cell number change was -4%. The AC50 under setting [2] is 0.103 µM [rising, full curve].

Turning to `Cc1cccc(NC(=S)NNC(=O)c2sccc2C)c1`, the cell number change stood at 35%. The AC50 under setting [1] was 3.26 µM [rising, full curve, poor fit]. Also, the AC50 under setting [2] was 0.259 µM [falling, full curve, poor fit].

In the case of `Cc1ccccc1Cn1nc(C)c(NC(=O)/C=C/c2cnn(C)c2)c1C`, the cell number change was determined as 17.7%. Besides, the AC50 under setting [2] is 8.2 µM [rising, partial curve].

`CCCn1c(SCC(=O)Nc2c(CC)cccc2CC)nnc1C(C)C`: the cell number change is 19.4%. For the same molecule, under setting [2], the AC50 was 3.26 µM [falling, partial curve].
